From the supplement of paper PMC10077471 come the findings set out here.

Whole data set: some 1,900 compounds, median “excess over highest single agent (ExcessHSA) synergy score, 6x6 matrix” near -83, cut for the lowest 2% near -370. Some of the results follow.

This test relates to NCI-H446. Put plainly: excess over highest single agent (ExcessHSA) synergy score, 6x6 matrix; higher = less synergy (more negative = stronger synergy). To be noted: 72 h; CellTiter-Glo viability.
Take `O=C(O)CCCc1c[nH]c2ccccc12` + Cc1sc2c(c1C)C(c1ccc(Cl)cc1)=N[C@@H](CC(=O)OC(C)(C)C)c1nnc(C)n1-2 [NCGC00250412-19]: the “excess over highest single agent” value worked out at 51.4.

Consider `COCCOC(=O)C1=C(C)NC2=C(C(=O)CC(c3ccccc3OC)C2)C1c1cccc(O)c1` (stereo not drawn) + Cc1sc2c(c1C)C(c1ccc(Cl)cc1)=N[C@@H](CC(=O)OC(C)(C)C)c1nnc(C)n1-2 [NCGC00250412-19], for which the “excess over highest single agent” value is -83.4.

Regarding `CC(C)[C@@H](C)/C=C/[C@@H](C)[C@H]1CC[C@H]2C3=CC=C4C[C@@H](O)CC[C@]4(C)[C@H]3CC[C@]12C` + Cc1sc2c(c1C)C(c1ccc(Cl)cc1)=N[C@@H](CC(=O)OC(C)(C)C)c1nnc(C)n1-2 [NCGC00250412-19], the “excess over highest single agent” value is -180.

With `Clc1ccc2c(c1)C(N1CCNCC1)=Nc1ccccc1O2` + Cc1sc2c(c1C)C(c1ccc(Cl)cc1)=N[C@@H](CC(=O)OC(C)(C)C)c1nnc(C)n1-2 [NCGC00250412-19], the “excess over highest single agent” value was -234.

As to `Cc1ccc(N(CC2=NCCN2)c2cccc(O)c2)cc1` + Cc1sc2c(c1C)C(c1ccc(Cl)cc1)=N[C@@H](CC(=O)OC(C)(C)C)c1nnc(C)n1-2 [NCGC00250412-19], the “excess over highest single agent” value was -239.

On to `CCc1ccc(CCOc2ccc(CC3SC(=O)NC3=O)cc2)nc1` (stereo not drawn) + Cc1sc2c(c1C)C(c1ccc(Cl)cc1)=N[C@@H](CC(=O)OC(C)(C)C)c1nnc(C)n1-2 [NCGC00250412-19], for which the “excess over highest single agent” value is 53.8.

On to `O=C(CCCCCCC(=O)Nc1cccnc1)NO` + Cc1sc2c(c1C)C(c1ccc(Cl)cc1)=N[C@@H](CC(=O)OC(C)(C)C)c1nnc(C)n1-2 [NCGC00250412-19], for which the “excess over highest single agent” value was -276.

For the molecule `CC[C@@H]1/C=C/C=C/C[C@H](C)[C@H](O)[C@](C)(O)C(=O)[C@H](C)[C@@H](O)[C@H](C)C(=O)[C@H](C)[C@@H](O)[C@H](C)/C=C/C(=O)O[C@H]2[C@@H](C)[C@@H](CC1)O[C@@]1(CC[C@@H](C)[C@@H](C[C@H](C)O)O1)[C@@H]2C` + Cc1sc2c(c1C)C(c1ccc(Cl)cc1)=N[C@@H](CC(=O)OC(C)(C)C)c1nnc(C)n1-2 [NCGC00250412-19], the “excess over highest single agent” value is -216.

In the case of `CO[C@H]1/C=C/O[C@@]2(C)Oc3c(C)c(O)c4c(O)c(c(/C=N/N5CCN(C)CC5)c(O)c4c3C2=O)NC(=O)/C(C)=C\C=C\[C@H](C)[C@H](O)[C@@H](C)[C@@H](O)[C@@H](C)[C@H](OC(C)=O)[C@@H]1C` + Cc1sc2c(c1C)C(c1ccc(Cl)cc1)=N[C@@H](CC(=O)OC(C)(C)C)c1nnc(C)n1-2 [NCGC00250412-19], the “excess over highest single agent” value was -65.6.

Consider `COc1cc(F)c(C(C)C)cc1-c1ccc(C(F)(F)F)cc1CN1C(=O)O[C@H](c2cc(C(F)(F)F)cc(C(F)(F)F)c2)[C@@H]1C` + Cc1sc2c(c1C)C(c1ccc(Cl)cc1)=N[C@@H](CC(=O)OC(C)(C)C)c1nnc(C)n1-2 [NCGC00250412-19], for which the “excess over highest single agent” value was -89.5.

For `CC(Oc1ccc(O)cc1)(P(=O)(O)O)P(=O)(O)O` + Cc1sc2c(c1C)C(c1ccc(Cl)cc1)=N[C@@H](CC(=O)OC(C)(C)C)c1nnc(C)n1-2 [NCGC00250412-19], the “excess over highest single agent” value is -65.1.

For the molecule `COc1cc(C(C)C)c(Oc2cnc(NC(CO)CO)nc2N)cc1I` + Cc1sc2c(c1C)C(c1ccc(Cl)cc1)=N[C@@H](CC(=O)OC(C)(C)C)c1nnc(C)n1-2 [NCGC00250412-19], the “excess over highest single agent” value was -119.

For `O=C1NC(=O)/C(=C/c2ccc3nccc(-c4ccncc4)c3c2)S1` + Cc1sc2c(c1C)C(c1ccc(Cl)cc1)=N[C@@H](CC(=O)OC(C)(C)C)c1nnc(C)n1-2 [NCGC00250412-19], the “excess over highest single agent” value is -177.

Regarding `O=C1NC(=O)C(c2ccccc2[N+](=O)[O-])=C1Nc1ccc(O)c(Cl)c1` + Cc1sc2c(c1C)C(c1ccc(Cl)cc1)=N[C@@H](CC(=O)OC(C)(C)C)c1nnc(C)n1-2 [NCGC00250412-19], the “excess over highest single agent” value was 138.

For `Oc1ccc(C2CNCCc3c2cc(O)c(O)c3Cl)cc1` (stereo not drawn) + Cc1sc2c(c1C)C(c1ccc(Cl)cc1)=N[C@@H](CC(=O)OC(C)(C)C)c1nnc(C)n1-2 [NCGC00250412-19], the “excess over highest single agent” value was -348.

For the molecule `Cc1cc(Nc2cc(NC(=O)c3c(Cl)cccc3Cl)ccn2)nc(N)n1` + Cc1sc2c(c1C)C(c1ccc(Cl)cc1)=N[C@@H](CC(=O)OC(C)(C)C)c1nnc(C)n1-2 [NCGC00250412-19], the “excess over highest single agent” value was -114.

Turning to `COCCOc1nc(-c2ccc(Cl)c(Cl)c2)n(-c2ccc(NC(=O)CCl)cc2)n1` + Cc1sc2c(c1C)C(c1ccc(Cl)cc1)=N[C@@H](CC(=O)OC(C)(C)C)c1nnc(C)n1-2 [NCGC00250412-19], the “excess over highest single agent” value was -201.

With `CCOC(=O)N1CCN(/[N+]([O-])=N/Oc2cc(O/N=[N+](\[O-])N3CCN(C(=O)OCC)CC3)c([N+](=O)[O-])cc2[N+](=O)[O-])CC1` + Cc1sc2c(c1C)C(c1ccc(Cl)cc1)=N[C@@H](CC(=O)OC(C)(C)C)c1nnc(C)n1-2 [NCGC00250412-19], the “excess over highest single agent” value was -102.

Consider `CN1C(=O)COc2c(C(=O)NC3CN4CCC3CC4)cc(Cl)cc21` (stereo not drawn) + Cc1sc2c(c1C)C(c1ccc(Cl)cc1)=N[C@@H](CC(=O)OC(C)(C)C)c1nnc(C)n1-2 [NCGC00250412-19], for which the “excess over highest single agent” value is -81.7.

`OC[C@@H](O)[C@@H](O)[C@H](O)[C@H](O)CO` + Cc1sc2c(c1C)C(c1ccc(Cl)cc1)=N[C@@H](CC(=O)OC(C)(C)C)c1nnc(C)n1-2 [NCGC00250412-19]: the “excess over highest single agent” value was -202.

Regarding `O=C(Oc1ccc([N+](=O)[O-])cc1)N1CCC(C(O)(c2ccc3c(c2)OCO3)c2ccc3c(c2)OCO3)CC1` + Cc1sc2c(c1C)C(c1ccc(Cl)cc1)=N[C@@H](CC(=O)OC(C)(C)C)c1nnc(C)n1-2 [NCGC00250412-19], the “excess over highest single agent” value is -72.8.

Turning to `C[C@H](NCc1ccc(OCc2cccc(F)c2)cc1)C(N)=O` + Cc1sc2c(c1C)C(c1ccc(Cl)cc1)=N[C@@H](CC(=O)OC(C)(C)C)c1nnc(C)n1-2 [NCGC00250412-19], the “excess over highest single agent” value was 8.99.

On to `CCn1cc(C(=O)O)c(=O)c2cc(F)c(N3CCNCC3)nc21` + Cc1sc2c(c1C)C(c1ccc(Cl)cc1)=N[C@@H](CC(=O)OC(C)(C)C)c1nnc(C)n1-2 [NCGC00250412-19], for which the “excess over highest single agent” value came to 92.6.
